Measurements published in publication PMC6342928.
Results are given in words; binding and its absence hold for the method and conditions named. In cells and extracts the contact can be indirect.

By UniProt entry, the sequences of proteins in these tests, tags left out. Residues count along the entry.
UniProt P56703, residues 22-355: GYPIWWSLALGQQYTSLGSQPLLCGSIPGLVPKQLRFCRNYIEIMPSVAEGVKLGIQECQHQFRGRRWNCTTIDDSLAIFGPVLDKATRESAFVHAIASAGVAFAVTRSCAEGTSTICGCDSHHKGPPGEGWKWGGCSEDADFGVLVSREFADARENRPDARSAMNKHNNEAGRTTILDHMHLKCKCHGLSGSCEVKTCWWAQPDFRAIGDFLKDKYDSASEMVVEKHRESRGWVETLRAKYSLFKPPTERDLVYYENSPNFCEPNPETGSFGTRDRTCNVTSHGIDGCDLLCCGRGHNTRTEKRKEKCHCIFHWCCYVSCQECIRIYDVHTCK
UniProt O75787, residues 17-350: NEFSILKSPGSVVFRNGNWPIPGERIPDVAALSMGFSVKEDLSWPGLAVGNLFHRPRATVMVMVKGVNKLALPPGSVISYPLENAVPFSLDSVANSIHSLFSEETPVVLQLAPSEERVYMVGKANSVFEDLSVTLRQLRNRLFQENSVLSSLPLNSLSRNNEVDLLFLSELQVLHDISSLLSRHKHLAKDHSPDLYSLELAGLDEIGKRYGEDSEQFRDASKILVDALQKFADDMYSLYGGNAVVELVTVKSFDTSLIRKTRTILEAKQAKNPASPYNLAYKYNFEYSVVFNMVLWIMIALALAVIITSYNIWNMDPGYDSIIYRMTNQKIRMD

Target: Wnt3 (human (endogenous in DLD-1)) (UniProt P56703)
Assay: co-IP; Wnt3 immunoprecipitated from whole lysates of DLD-1 cells, immunoblot with (P)RR antibody; the protocol is only cited (ref. 31)

- binding: no binding
Substance: (Pro)renin receptor (from UniProt O75787 17-350)
